# Paper PMC7819943, “Rice protein-binding microarrays: a tool to detect cis-acting elements near promoter regions in rice”
# By UniProt entry, the sequences of proteins in these tests, tags left out.
# UniProt Q0JBA9, entry or part of it: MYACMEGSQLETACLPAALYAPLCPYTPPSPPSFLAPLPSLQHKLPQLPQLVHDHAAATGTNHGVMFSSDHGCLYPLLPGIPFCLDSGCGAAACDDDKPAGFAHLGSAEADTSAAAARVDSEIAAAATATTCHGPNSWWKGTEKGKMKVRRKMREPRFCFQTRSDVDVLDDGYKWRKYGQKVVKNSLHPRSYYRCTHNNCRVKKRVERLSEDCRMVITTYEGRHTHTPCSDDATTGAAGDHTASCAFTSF
# The other results are listed elsewhere or left out.
# Biological target: OsWRKY34 (Oryza sativa, UniProt Q0JBA9 1-250)
# Test: protein-binding microarray (RPBM); PBS, 2% BSA, 51.3 ng/ul salmon testes DNA, 50 uM zinc acetate, 200 nM TF, 25 C, 1 h; high values mean tight binding
# Conditions: protein: recombinant; tags: N-terminal polyhistidine and DsRed monomer fusion (pET32a); label: CyDye5-dUTP incorporated in the synthesized complementary strand; 3' TTTTT single-stranded linker to array surface; dsDNA, one strand shown
# Outline: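 Binding signal is reported as fluorescence intensity per feature (arbitrary units) from an Axon 4000B scanner. Incubation used 200 nM of each Ni–NTA-purified, N-terminally polyhistidine- and DsRed-fused transcription factor from E. coli BL21-CodonPlus on a double-stranded custom Agilent array for 1 h at 25 °C, with 50 µM zinc acetate in the buffer, followed by washing.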
row,Sequence,binding signal
1,GTGGTGGTGGTGGTGGTGGTGGCGGCGGCGGCCGGCCATGCGGAGTCACCTAGTGCAG,20000 fluorescence intensity (a.u.)
2,GTACTCTCCAACTATACATGCAAAGGCAGCCACACGTACACGGAGTCACCTAGTGCAG,8640 fluorescence intensity (a.u.)
3,GCAGCACTGGTTCCTAGCTTCTCTTCAGTCGTTCGGCCTACGGAGTCACCTAGTGCAG,11900 fluorescence intensity (a.u.)
4,TCTGTCACTCACTCACTCACTCACTCACTCACTAGAGTTACGGAGTCACCTAGTGCAG,8360 fluorescence intensity (a.u.)
5,TCGCTTTACCTTTGTTTCTCACTTCTGTAACTAAAACCTACGGAGTCACCTAGTGCAG,8520 fluorescence intensity (a.u.)
6,TTTTCACCAACTGTGCATAGGTGTACCATGTTTGGACAACCGGAGTCACCTAGTGCAG,9800 fluorescence intensity (a.u.)
7,TCCTCGATGACCGATCCGTCGTTCCGGCGCTAAGCACATGCGGAGTCACCTAGTGCAG,8090 fluorescence intensity (a.u.)
8,ATATAGGTTACGGATTTGTCATTGGTCGTTGTATTCTTTTCGGAGTCACCTAGTGCAG,10600 fluorescence intensity (a.u.)
9,TTTCCTTATATCCCTATGGTTTGTGTTCGACTCTTTTATCCGGAGTCACCTAGTGCAG,10100 fluorescence intensity (a.u.)
10,GCGCATGGTGTTCGGGAAGAAGTACATCGTCGAGGAGGGGCGGAGTCACCTAGTGCAG,8540 fluorescence intensity (a.u.)
11,CCTTGGTGTTGGCTCCTCCTGTCCAATCCTCTGGCTTAAGCGGAGTCACCTAGTGCAG,8040 fluorescence intensity (a.u.)
12,GGGTATTTTTTAAGTAGCTAGGTGTATAATTAAATTAGTTCGGAGTCACCTAGTGCAG,8760 fluorescence intensity (a.u.)
13,GATCTATTATATCTAGTCTTTCGGTTCGGGGCAGTTTTAACGGAGTCACCTAGTGCAG,11800 fluorescence intensity (a.u.)
14,TCTTTCATGCCAACCCGCCGTCCTAGCCACTCCCGTTCTTCGGAGTCACCTAGTGCAG,14200 fluorescence intensity (a.u.)
15,TCCCGGCCACTTGCCGTGTGACGACGCCGGTCAAATTTTCCGGAGTCACCTAGTGCAG,10300 fluorescence intensity (a.u.)
16,TGCGGCCCACCTTTGCTTCTTCGTTGACTTTCTTGCCGTCCGGAGTCACCTAGTGCAG,26900 fluorescence intensity (a.u.)
17,AATGTTTATATTTTGGGACAGAGGGTGTATGTATGTAGACCGGAGTCACCTAGTGCAG,8070 fluorescence intensity (a.u.)
18,TGTGTGGTTGAGGGAGGTGATTCAATTAGGAGCGAACGATCGGAGTCACCTAGTGCAG,9190 fluorescence intensity (a.u.)
19,ATGGATAGTTAGATTTTTTTTTTAATTTTTTGAACTTTTTCGGAGTCACCTAGTGCAG,9420 fluorescence intensity (a.u.)
20,TAAATATGATACCGTGTCGACTGTTTCCTCGCCTCCTTCCCGGAGTCACCTAGTGCAG,8300 fluorescence intensity (a.u.)
21,CTTAATGTTAATCACACCGCTTAACCAAATGTCTTCTACACGGAGTCACCTAGTGCAG,8770 fluorescence intensity (a.u.)
22,GCGACGAGAGCTGTCGTGGGTGGCGGTGGTGGGCTCGCTGCGGAGTCACCTAGTGCAG,8280 fluorescence intensity (a.u.)
23,TCCTGAATTCGTCCCTACCCGCGCCAGATCGGAGCTCGTACGGAGTCACCTAGTGCAG,8030 fluorescence intensity (a.u.)
24,AACCTTTGCCCGCCGCCGCCGCCGACGAGAATCTCCTCCTCGGAGTCACCTAGTGCAG,10500 fluorescence intensity (a.u.)
25,GCCTCCACGCCTTGCTGCCGCAACTGACGTCGTCGTCGTCCGGAGTCACCTAGTGCAG,10900 fluorescence intensity (a.u.)
26,CGTTACCTACTCCCTCCTACCACTACCACCAACGTCGCATCGGAGTCACCTAGTGCAG,8130 fluorescence intensity (a.u.)
27,TCTCTCTCTCTACAGACTACAGTGCGTCGTCGTGTCTTCTCGGAGTCACCTAGTGCAG,10900 fluorescence intensity (a.u.)

# Some of the entries above in another layout.
row	Sequence	binding signal
13	GATCTATTATATCTAGTCTTTCGGTTCGGGGCAGTTTTAACGGAGTCACCTAGTGCAG	11800 fluorescence intensity (a.u.)
14	TCTTTCATGCCAACCCGCCGTCCTAGCCACTCCCGTTCTTCGGAGTCACCTAGTGCAG	14200 fluorescence intensity (a.u.)
15	TCCCGGCCACTTGCCGTGTGACGACGCCGGTCAAATTTTCCGGAGTCACCTAGTGCAG	10300 fluorescence intensity (a.u.)

# Further entries:

row,Sequence,binding signal
1,CGATCGATCGATCGCGCGCCTCCGCCTATAAATTCTTGCCCGGAGTCACCTAGTGCAG,8230 fluorescence intensity (a.u.)
2,GCTCACCGCCGCTGTTCCTCCTCATGTTTGTGTACGCATCCGGAGTCACCTAGTGCAG,9730 fluorescence intensity (a.u.)
3,CCATACACCGGCCATGCTTGCTCCTCCTGCGTTCATGCATCGGAGTCACCTAGTGCAG,8670 fluorescence intensity (a.u.)
4,CCACTGTCATTTCGTCCGCTACGCTCCGGCCCAAGCCTCCCGGAGTCACCTAGTGCAG,8950 fluorescence intensity (a.u.)
5,TCAGAAAATGTCACAAAATTGTTCGCTTTATCTCTATATCCGGAGTCACCTAGTGCAG,8160 fluorescence intensity (a.u.)
6,TTATCCTCCTGGGAGTGTTGCAACTATGTTTTTTTAGTGTCGGAGTCACCTAGTGCAG,8780 fluorescence intensity (a.u.)
7,AGTCTTTGAAGATGCTTATAGGGGTAGGGTTTGCGTGCGTCGGAGTCACCTAGTGCAG,9620 fluorescence intensity (a.u.)
8,GCCATGATGCCTCTGTCGCCGTCTCCGGAGCCTACTCTCCCGGAGTCACCTAGTGCAG,10500 fluorescence intensity (a.u.)
9,TTCCTGACCCTGCTTCACCTTAATTGTTATTTGAACAAAACGGAGTCACCTAGTGCAG,9510 fluorescence intensity (a.u.)
10,CGTCTCGTCCACCGCGGCTCGCCTCGTCGTCTTCCAGCCGCGGAGTCACCTAGTGCAG,9050 fluorescence intensity (a.u.)
11,AATTCTCCATTTAACTTTTCCGTTTTCCAATTTCACATCACGGAGTCACCTAGTGCAG,8580 fluorescence intensity (a.u.)
12,CTATCTATAGGCCCATTATTATCTATCTGTGTTATGTTTTCGGAGTCACCTAGTGCAG,8360 fluorescence intensity (a.u.)
13,AGCTTTGGTTCTTGGTTTGTGTTTCTAGTTGATGCACTCCCGGAGTCACCTAGTGCAG,10200 fluorescence intensity (a.u.)
14,TCATTGTAGTTCTTTCCATCGCAGAGGGTGGGCTAGGGCGCGGAGTCACCTAGTGCAG,10700 fluorescence intensity (a.u.)
15,CTCTTTTTATGTTAAATCCACGTATCACCCACTCTCCTTTCGGAGTCACCTAGTGCAG,8420 fluorescence intensity (a.u.)
16,TCGCTCTACCCCACCACTTCCTCACACGCGGCCGTCGCCGCGGAGTCACCTAGTGCAG,8240 fluorescence intensity (a.u.)
17,CTCGCCGTGTTCTTCGCTCCGCCGCCGGGCGCCGCCGGATCGGAGTCACCTAGTGCAG,8540 fluorescence intensity (a.u.)
18,TGTTATATTTGTATTTGTGCTTTGCTTCTTCTAGGCTTTTCGGAGTCACCTAGTGCAG,8740 fluorescence intensity (a.u.)
19,ACCACTAGGAATCATTCAATTCAATTCATGGATATCCACTCGGAGTCACCTAGTGCAG,8580 fluorescence intensity (a.u.)
20,TGGTCGGACCACAACAAAATTGTTTCCGTCTATGTTTCCACGGAGTCACCTAGTGCAG,8930 fluorescence intensity (a.u.)
21,TCACCGACCTCCCGCCGGTCACCGCGCTGCTCACGCCGGACGGAGTCACCTAGTGCAG,8810 fluorescence intensity (a.u.)
22,GAGATCCGAGGCACTCGTTGACCCTGCGCTCCGGCGGCCGCGGAGTCACCTAGTGCAG,8360 fluorescence intensity (a.u.)
23,CACATCGCTTCGCCGCCGTATCCCTTCTCTTCTTCCTCTTCGGAGTCACCTAGTGCAG,16200 fluorescence intensity (a.u.)
24,CGATATCTTTCTAACGCCGCTGGTTTCACTCAATTCCGACCGGAGTCACCTAGTGCAG,8950 fluorescence intensity (a.u.)
25,AATATTTGTTTCACCTGTACTGTTTCTGCTGCATGCATTCCGGAGTCACCTAGTGCAG,11300 fluorescence intensity (a.u.)
26,CCGCCGCTGCCCACCAGGCACCACAGTAATTAATTTCTTTCGGAGTCACCTAGTGCAG,8350 fluorescence intensity (a.u.)
27,GCAGTTTTCTAATGACCGTGTTGTTTTCGGTTATTTTTGTCGGAGTCACCTAGTGCAG,8900 fluorescence intensity (a.u.)
